Measurements taken from the supplement of paper PMC2577665.

Test system: ERE-luciferase reporter with exogenous ERalpha in HeLa cells
Assay: relative ERE luciferase activity (Firefly/Renilla) upon cDNA overexpression, relative to empty vector (fold of empty vector); higher = stronger ERalpha transactivation (less repression)
Conditions: 17beta-estradiol: 10 nM; 12 h

Sequence | relative ERE luciferase activity
MSLCSPTHSAEMSLFLQGPEEMLPLSSEGSEMGSEKEQSPEPHLPEEGEGGKPWRVDDSEGSWIPPGEKEHGQESLSDELQETHPKKPWQKVTVRARELGDPIAHPRHEADEKPFICAQCGKTFNNTSNLRTHQRIHTGEKPYKCSECGKSFSRSSNRIRHERIHLEEKHYKCPKCQESFRRRSDLTTHQQDHLGKRPYRCDICGKSFSQSATLAVHHRTHLEPAPYICCECGKSFSNSSSFGVHHRTHTGERPYECTECGRTFSDISNFGAHQRTHRGEKPYRCTVCGKHFSRSSNLIRHQKTHLGEQAGKDSS [ZNF691] | 1.08
MSLLLYYALPALGSYAMLSIFFLRRPHLLHTPRAPTFRIRLGAHRGGSGELLENTMEAMENSMAQRSDLLELDCQLTRDRVVVVSHDENLCRQSGLNRDVGSLDFEDLPLYKEKLEVYFSPGHFAHGSDRRMVRLEDLFQRFPRTPMSVEIKGKNEELIREIAGLVRRYDRNEITIWASEKSSVMKKCKAANPEMPLSFTISRGFWVLLSYYLGLLPFIPIPEKFFFCFLPNIINRTYFPFSCSCLNQLLAVVSKWLIMRKSLIRHLEERGVQVVFWCLNEESDFEAAFSVGATGVITDYPTALRHYLDNHGPAARTS [GDPD3] | 1.04
MSLNPPIFLKRSEENSSKFVETKQSQTTSIASEDPLQNLCLASQEVLQKAQQSGRSKCLKCGGSRMFYCYTCYVPVENVPIEQIPLVKLPLKIDIIKHPNETDGKSTAIHAKLLAPEFVNIYTYPCIPEYEEKDHEVALIFPGPQSISIKDISFHLQKRIQNNVRGKNDDPDKPSFKRKRTEEQEFCDLNDSKCKGTTLKKIIFIDSTWNQTNKIFTDERLQGLLQVELKTRKTCFWRHQKGKPDTFLSTIEAIYYFLVDYHTDILKEKYRGQYDNLLFFYSFMYQLIKNAKCSGDKETGKLTH [DTWD1] | 1.21
MSLSDWHLAVKLADQPLTPKSILRLPETELGEYSLGGYSISFLKQLIAGKLQESVPDPELIDLIYCGRKLKDDQTLDFYGIQPGSTVHVLRKSWPEPDQKPEPVDKVAAMREFRVLHTALHSSSSYREAVFKMLSNKESLDQIIVATPGLSSDPIALGVLQDKDLFSVFADPNMLDTLVPAHPALVNAIVLVLHSVAGSAPMPGTDSSSRSMPSSSYRDMPGGFLFEGLSDDEDDFHPNTRSTPSSSTPSSRPASLGYSGAAGPRPITQSELATALALASTPESSSHTPTPGTQGHSSGTSPMSSGVQSGTPITNDLFSQALQHALQASGQPSLQSQWQPQLQQLRDMGIQDDELSLRALQATGGDIQAALELIFAGGAP [UBL7] | 1.1 ± 0.061
MSNYVNDMWPGSPQEKDSPSTSRSGGSSRLSSRSRSRSFSRSSRSHSRVSSRFSSRSRRSKSRSRSRRRHQRKYRRYSRSYSRSRSRSRSRRYRERRYGFTRRYYRSPSRYRSRSRSRSRSRGRSYCGRAYAIARGQRYYGFGRTVYPEEHSRWRDRSRTRSRSRTPFRLSEKDRMELLEIAKTNAAKALGTTNIDLPASLRTVPSAKETSRGIGVSSNGAKPELSEKVTEDGTRNPNEKPTQQRSIAFSSNNSVAKPIQKSAKAATEEASSRSPKIDQKKSPYGLWIPI [C1orf63] | 1.1
MSRIPLGKVLLRNVIRHTDAHNKIQEESDMWKIRELEKQMEDAYRGTKRKMLPSSSSRMRSDGFDEESQRYYWRPKNEISGTLEDDFLKAKSWNKKFYDYEANMPDRWGHSGYKELYPEEFETDSDQQDITNGKKTSPQVKSSTHESRKHKKSKKSHKKKQKKRSHKKQKKSKKEATDITADSSSEFSEETGASGTRKGKQPHKRKKKSRKKSLKKPALFLEAESNTSHSDDSASSSSEESEERDTKKTKRKKREKKAHTSVANNEIQERTNKRTNWKVATDERSAESSEDD [C11orf57] | 1.94
MSRPLITRSPASPLNNQGIPTPAQLTKSNAPVHIDVGGHMYTSSLATLTKYPESRIGRLFDGTEPIVLDSLKQHYFIDRDGQMFRYILNFLRTSKLLIPDDFKDYTLLYEEAKYFQLQPMLLEMERWKQDRETGRFSRPCECLVVRVAPDLGERITLSGDKSLIEEVFPEIGDVMCNSVNAGWNHDSTHVIRFPLNGYCHLNSVQVLERLQQRGFEIVGSCGGGVDSSQFSEYVLRRELRRTPRVPSVIRIKQEPLD [KCTD1] | 1.25
MSSKKAKTKTTKKRPQRATSNVFAMFDQSQIQEFKEAFNMIDQNRDGFIDKEDLHDMLASLGKNPTDAYLDAMMNEAPGPINFTMFLTMFGEKLNGTDPEDVIRNAFACFDEEATGTIQEDYLRELLTTMGDRFTDEEVDELYREAPIDKKGNFNYIEFTRILKHGAKDKDD [MRLC2] | 1.01
MSSQELVTLNVGGKIFTTRFSTIKQFPASRLARMLDGRDQEFKMVGGQIFVDRDGDLFSFILDFLRTHQLLLPTEFSDYLRLQREALFYELRSLVDLLNPYLLQPRPALVEVHFLSRNTQAFFRVFGSCSKTIEMLTGRITVFTEQPSAPTWNGNFFPPQMTLLPLPPQRPSYHDLVFQCGSDSTTDNQTGVRYVSIKPDNRKLANGTNVLGLLIDTLLKEGFHLVSTRTVSSEDKTECYSFERIKSPEVLITNETPKPETIIIPEQSQIKK [KCNRG] | 1.16
MSTAALITLVRSGGNQVRRRVLLSSRLLQDDRRVTPTCHSSTSEPRCSRFDPDGSGSPATWDNFGIWDNRIDEPILLPPSIKYGKPIPKISLENVGCASQIGKRKENEDRFDFAQLTDEVLYFAVYDGHGGPAAADFCHTHMEKCIMDLLPKEKNLETLLTLAFLEIDKAFSSHARLSADATLLTSGTTATVALLRDGIELVVASVGDSRAILCRKGKPMKLTIDHTPERKDEKERIKKCGGFVAWNSLGQPHVNGRLAMTRSIGDLDLKTSGVIAEPETKRIKLHHADDSFLVLTTDGINFMVNSQEICDFVNQCHDPNEAAHAVTEQAIQYGTEDNSTAVVVPFGAWGKYKNSEINFSFSRSFASSGRWA [PPM1K] | 1.02
MSTAAVPELKQISRVEAMRLGPGWSHSCHAMLYAANPGQLFGRIPMRFSVLMQMRFDGLLGFPGGFVDRRFWSLEDGLNRVLGLGLGCLRLTEADYLSSHLTEGPHRVVAHLYARQLTLEQLHAVEISAVHSRDHGLEVLGLVRVPLYTQKDRVGGFPNFLSNAFVSTAKCQLLFALKVLNMMPEEKLVEALAAATEKQKKALEKLLPASS [NUDT16L1] | 2.45
MSTIQNLQSFDPFADATKGDDLLPAGTEDYIHIRIQQRNGRKTLTTVQGIADDYDKKKLVKAFKKKFACNGTVIEHPEYGEVIQLQGDQRKNICQFLLEVGIVKEEQLKVHGF [EIF1B] | 1.32
MSTLCPPPSPAVAKTEIALSGKSPLLAATFAYWDNILGPRVRHIWAPKTEQVLLSDGEITFLANHTLNGEILRNAESGAIDVKFFVLSEKGVIIVSLIFDGNWNGDRSTYGLSIILPQTELSFYLPLHRVCVDRLTHIIRKGRIWMHKERQENVQKIILEGTERMEDQGQSIIPMLTGEVIPVMELLSSMKSHSVPEEIDIADTVLNDDDIGDSCHEGFLLNAISSHLQTCGCSVVVGSSAEKVNKIVRTLCLFLTPAERKCSRLCEAESSFKYESGLFVQGLLKDSTGSFVLPFRQVMYAPYPTTHIDVDVNTVKQMPPCHEHIYNQRRYMRSELTAFWRATSEEDMAQDTIIYTDESFTPDLNIFQDVLHRDTLVKAFLDQVFQLKPGLSLRSTFLAQFLLVLHRKALTLIKYIEDDTQKGKKPFKSLRNLKIDLDLTAEGDLNIIMALAEKIKPGLHSFIFGRPFYTSVQERDVLMTF [C9orf72] | 1.09
MSTSTSPAAMLLRRLRRLSWGSTAVQLFILTVVTFGLLAPLACHRLLHSYFYLRHWHLNQMSQEFLQQSLKEGEAALHYFEELPSANGSVPIVWQATPRPWLVITIITVDRQPGFHYVLQVVSQFHRLLQQCGPQCEGHQLFLCNVERSVSHFDAKLLSKYVPVANRYEGTEDDYGDDPSTNSFEKEKQDYVYCLESSLQTYNPDYVLMVEDDAVPEEQIFPVLEHLLRARFSEPHLRDALYLKLYHPERLQHYINPEPMRILEWVGVGMLLGPLLTWIYMRFASRPGFSWPVMLFFSLYSMGLVELVGRHYFLELRRLSPSLYSVVPASQCCTPAMLFPAPAARRTLTYLSQVYCHKGFGKDMALYSLLRAKGERAYVVEPNLVKHIGLFSSLRYNFHPSLL [C9orf125] | 1.83 ± 1.2
MSWLFPLTKSASSSAAGSPGGLTSLQQQKQRLIESLRNSHSSIAEIQKDVEYRLPFTINNLTININILLPPQFPQEKPVISVYPPIRHHLMDKQGVYVTSPLVNNFTMHSDLGKIIQSLLDEFWKNPPVLAPTSTAFPYLYSNPSGMSPYASQGFPFLPPYPPQEANRSITSLSVADTVSSSTTSHTTAKPAAPSFGVLSNLPLPIPTVDASIPTSQNGFGYKMPDVPDAFPELSELSVSQLTDMNEQEEVLLEQFLTLPQLKQIITDKDDLVKSIEELARKNLLLEPSLEAKRQTVLDKYELLTQMKSTFEKKMQRQHELSESCSASALQARLKVAAHEAEEESDNIAEDFLEGKMEIDDFLSSFMEKRTICHCRRAKEEKLQQAIAMHSQFHAPL [VPS37A] | 1.12 ± 0.053
MSYKPIAPAPSSTPGSSTPGPGTPVPTGSVPSPSGSVPGAGAPFRPLFNDFGPPSMGYVQAMKPPGAQGSQSTYTDLLSVIEEMGKEIRPTYAGSKSAMERLKRGIIHARALVRECLAETERNART [CDK2AP2] | 1
MTAWILLPVSLSAFSITGIWTVYAMAVMNHHVCPVENWSYNESCPPDPAEQGGPKTCCTLDDVPLISKCGSYPPESCLFSLIGNMGAFMVALICLLRYGQLLEQSRHSWVNTTALITGCTNAAGLLVVGNFQVDHARSLHYVGAGVAFPAGLLFVCLHCALSYQGATAPLDLAVAYLRSVLAVIAFITLVLSGVFFVHESSQLQHGAALCEWVCVIDILIFYGTFSYEFGAVSSDTLVAALQPTPGRACKSSGSSSTSTHLNCAPESIAMI [TMEM150] | 1.09
MTEEPIKEILGAPKAHMAATMEKSPKSEVVITTVPLVSEIQLMAATGGTELSCYRCIIPFAVVVFIAGIVVTAVAYSFNSHGSIISIFGLVVLSSGLFLLASSALCWKVRQRSKKAKRRESQTALVANQRSLFA [TMEM100] | 1.02
MTEETHPDDDSYIVRVKAVVMTRDDSSGGWFPQEGGGISRVGVCKVMHPEGNGRSGFLIHGERQKDKLVVLECYVRKDLVYTKANPTFHHWKVDNRKFGLTFQSPADARAFDRGVRKAIEDLIEGSTTSSSTIHNEAELGDDDVFTTATDSSSNSSQKREQPTRTISSPTSCEHRRIYTLGHLHDSYPTDHYHLDQPMPRPYRQVSFPDDDEEIVRINPREKIWMTGYEDYRHAPVRGKYPDPSEDADSSYVRFAKGEVPKHDYNYPYVDSSDFGLGEDPKGRGGSVIKTQPSRGKSRRRKEDGERSRCVYCRDMFNHEENRRGHCQDAPDSVRTCIRRVSCMWCADSMLYHCMSDPEGDYTDPCSCDTSDEKFCLRWMALIALSFLAPCMCCYLPLRACYHCGVMCRCCGGKHKAAA [SPRED2] | 1.08
MTKIKADPDGPEAQAEACSGERTYQELLVNQNPIAQPLASRRLTRKLYKCIKKAVKQKQIRRGVKEVQKFVNKGEKGIMVLAGDTLPIEVYCHLPVMCEDRNLPYVYIPSKTDLGAAAGSKRPTCVIMVKPHEEYQEAYDECLEEVQSLPLPL [NOLA2] | 1.18
MTKTALLKLFVAIVITFILILPEYFKTPKERTLELSCLEVCLQSNFTYSLSSLNFSFVTFLQPVRETQIIMRIFLNPSNFRNFTRTCQDITGEFKMCSSCLVCESKGNMDFISQEQTSKVLIRRGSMEVKANDFHSPCQHFNFSVAPLVDHLEEYNTTCHLKNHTGRSTIMEDEPSKEKSINYTCRIMEYPNDCIHISLHLEMDIKNITCSMKITWYILVLLVFIFLIILTIRKILEGQRRVQKWQSHRDKPTSVLLRGSDSEKLRALNVQVLSAETTQRLPLDQVQEVLPPIPEL [TMEM156] | 1.02

± gives the standard deviation of the averaged measurements. This is a noisy data set.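 Each test well overexpressed one poorly characterized human cDNA in ERalpha-negative HeLa cells together with transfected ERalpha and a reporter carrying two estrogen response elements. A gene counted as a repressor hit if it cut the signal to the level of the BRCA1 positive control (about 0.6 of empty vector) or lower.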
